For at least one compound, name, drawing or mass did not settle the structure.
Key:
[1] = system: event mare with long term recurrent check ligament injury; assay: Case Study 6: intervention in event mare with recurrent check ligament injury and residual swelling; type: in vivo, horse
[2] = system: show pony suffering from laminitis; assay: Case Study 3: dietary intervention in show pony with laminitis and chronic lameness; type: in vivo, horse; details: history before the test

CCCCC1C(=O)N(c2ccccc2)N(c2ccccc2)C1=O [phenylbutazone, Phenylbutazone]
swelling (residual, check ligament injury) ([1]; Formula 2: 0.25 g per day increasing to maximum 1 g per day, phenylbutazone: earlier regime): not altered | condition (recurrent check ligament injury) under drug ([1]; earlier regime): manageable | improvement of chronic lameness on earlier drug therapy [2]: No improvement

— patent publication US20100291053A1, “Inflammatory Disease Treatment” (priority 2004, published 2010)
